No constants are given. Whether binding was seen depends on the method and setting. For part of these data: In cells and extracts the contact can be indirect. Some entries that bind do so weakly or less than the wild type. Sequences can lack the tags named with a protein.
T1: GFP-Bcl-B (human) (UniProt Q9HD36)
T1 sequence: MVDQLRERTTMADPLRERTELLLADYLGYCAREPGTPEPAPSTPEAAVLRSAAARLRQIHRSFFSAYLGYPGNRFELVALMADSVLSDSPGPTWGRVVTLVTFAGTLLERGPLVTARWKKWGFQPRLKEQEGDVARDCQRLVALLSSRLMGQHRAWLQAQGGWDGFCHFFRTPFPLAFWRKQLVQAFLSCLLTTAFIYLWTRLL

By UniProt entry, the sequences of proteins in these tests, tags left out.
UniProt P10415: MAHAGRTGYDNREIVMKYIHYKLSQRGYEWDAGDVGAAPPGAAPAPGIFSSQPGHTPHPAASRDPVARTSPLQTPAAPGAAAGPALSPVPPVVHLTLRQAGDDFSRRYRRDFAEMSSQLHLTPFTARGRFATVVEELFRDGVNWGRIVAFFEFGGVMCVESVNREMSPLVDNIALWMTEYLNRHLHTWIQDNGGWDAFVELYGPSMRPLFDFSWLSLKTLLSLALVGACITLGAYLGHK
UniProt Q07817: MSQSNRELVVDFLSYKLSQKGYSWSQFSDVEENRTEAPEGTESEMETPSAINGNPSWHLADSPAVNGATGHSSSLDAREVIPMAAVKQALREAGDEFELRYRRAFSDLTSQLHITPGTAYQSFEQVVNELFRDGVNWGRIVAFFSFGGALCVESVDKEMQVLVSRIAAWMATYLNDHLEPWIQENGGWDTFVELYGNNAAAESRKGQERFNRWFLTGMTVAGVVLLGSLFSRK
UniProt Q07812: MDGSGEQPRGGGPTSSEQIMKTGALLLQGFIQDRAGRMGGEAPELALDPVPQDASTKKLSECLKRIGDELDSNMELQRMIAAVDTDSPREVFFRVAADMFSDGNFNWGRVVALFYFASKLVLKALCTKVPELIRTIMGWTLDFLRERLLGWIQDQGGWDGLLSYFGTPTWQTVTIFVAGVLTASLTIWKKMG


Columns and labels:
Bcl-2 = Bcl-2 (UniProt P10415); experiment: co-immunoprecipitation from transfected 293T cell lysates, immunoblot
Flag-Bcl-XL = Flag-Bcl-XL (UniProt Q07817); experiment: as above
GFP-Bcl-B (human) [1] = target: T1, GFP-Bcl-B (human); experiment: as above
HA-Bax [2] = target: HA-Bax (UniProt Q07812); experiment: as above
GFP-Bcl-B (human) [3] = target: T1, GFP-Bcl-B (human); experiment: co-immunoprecipitation (anti-Myc or anti-Flag) and western blot, FIG. 2
Bax [4] = target: Bax (UniProt Q07812); experiment: anti-Myc immunoprecipitation from 293T cells, anti-Bax immunoblot (FIG. 4A)
HA-Bax [5] = target: HA-Bax (UniProt Q07812); experiment: co-immunoprecipitation from transfected 293T cell lysates, immunoblot (FIG. 2)
Bax [6] = target: Bax (UniProt Q07812); experiment: anti-Myc immunoprecipitation from HEK293T lysates, anti-Bax immunoblot (FIG. 4A)

Row | binding (Bcl-2) | binding (Flag-Bcl-XL) | binding (GFP-Bcl-B (human) [1]) | binding (HA-Bax [2]) | binding (GFP-Bcl-B (human) [3]) | binding (Bax [4]) | binding (HA-Bax [5]) | binding (Bax [6]) | Binder
1 | binds | binds | binds | binds | binds | binds | binds | binds | Myc-Bcl-B (protein, not shown: small tags and cut ends) MVDQLRERTTMADPLRERTELLLADYLGYCAREPGTPEPAPSTPEAAVLRSAAARLRQIHRSFFSAYLGYPGNRFELVALMADSVLSDSPGPTWGRVVTLVTFAGTLLERGPLVTARWKKWGFQPRLKEQEGDVARDCQRLVALLSSRLMGQHRAWLQAQGGWDGFCHFFRTPFPLAFWRKQLVQAFLSCLLTTAFIYLWTRLL
2 |  |  |  |  |  |  |  | binds | Myc-Bcl-B FFR(169-171)AAA (protein, not shown: small tags and cut ends) MVDQLRERTTMADPLRERTELLLADYLGYCAREPGTPEPAPSTPEAAVLRSAAARLRQIHRSFFSAYLGYPGNRFELVALMADSVLSDSPGPTWGRVVTLVTFAGTLLERGPLVTARWKKWGFQPRLKEQEGDVARDCQRLVALLSSRLMGQHRAWLQAQGGWDGFCHAAATPFPLAFWRKQLVQAFLSCLLTTAFIYLWTRLL

From patent US20030176671A1
